9 substances from patent US4250085 (dated 1981) can be followed below.

Values joined by “and” are separate entries in the source; they are usually repeats but may differ in a detail not shown here. Equal entries are not always repeated.

The data set in a line: general procedure: solution-phase peptide synthesis; N-hydroxysuccinimide ester (dicyclohexylcarbodiimide).
[1] abbreviates: coupling step, monobenzylamine salt.

Consider “(1R)-1-(N-sarcosyl-L-alanyl-L-alanylamino)-ethylphosphonic acid”, for which the step yield (late stage modification step, run 1) is 93% and 87%.
With “(1R)-1-(N-sarcosyl-L-histidyl-L-alanylamino)-ethylphosphonic acid”, for the setting “late stage modification step, monohydrobromide salt”, the step yield is on record as 69%.
As to “(1R)-1-(N-sarcosyl-glycyl-L-alanylamino)-ethylphosphonic acid”, the step yield (late stage modification step) is given as 56%.
As to “(1R)-1-[(N-benzyloxycarbonyl-sarcosyl-L-alanyl-L-alanyl)amino]-ethylphosphonic acid”, the step yield under setting [1] is recorded as 81%.
Consider “(1R)-1-[(N-benzyloxycarbonyl-sarcosyl-L-histidyl-L-alanyl)amino]-ethylphosphonic acid”, for which the step yield (coupling step) is recorded as 95%.
With “(1R)-1-[(N-benzyloxycarbonyl-sarcosyl-L-methionyl-L-alanyl)amino]-ethylphosphonic acid”, the step yield under setting [1] was determined as 76%.
With “(1R)-1-[(N-benzyloxycarbonyl-sarcosyl-glycyl-L-alanyl)amino]-ethylphosphonic acid”, the step yield by setting is: (coupling step) 95%; under setting [1], 65%.
Turning to “(N-sarcosyl-L-alanyl-L-alanylamino)-methylphosphonic acid”, the step yield (late stage modification step) was 85%.
On to “[(N-benzyloxycarbonyl-sarcosyl-L-alanyl-L-alanyl)amino]-methylphosphonic acid”, for which, under setting [1], the step yield was 73%.
